Assay results published in a protein production outcome set (Wang et al. 2014).

Assay: label from the status in PepcDB records

Sequence | protein production
DEKVQNSKTRFIAVSSGKGGVGKSNIAIGLALKYSELGKKVLILDADIGMANVNILLGVIPKYSIYHMIAQSRDIREVITKTEYNIDLLAGASGTMELLDLSDVDVNKFIKELLKIYEYDIVVIDTSAGISRQVISFLLSSDDVVIVTTPEPTSITDAYGIIKVLSYKMENLKNLRLIVNRVANVSEAKGVAKKVIDISGQFLNLNIDYLGHIYEDQNIRSSVFKQKPFVLVNPNSKASYCLDSIVATLEEVSLDNRKRRGVIGFILRFF | failed
MAITVASSRLGTAPFSNAAPVELRPDGDRDQVQAVIRAVYRQVLGNDYIMKSERLTAAESLLVNGSISVRDFVRAVAKSELYKTKFFYNNFQTRVIELHCKHLLGRAPYSEAEVIEHLDRYETQGYDADVDSYIDSSEYLETFGESIVPYYRDIEYHVGQQSVGLPRLFSLYRGYATSDRTSLGGNNSRLAANLAAKSVAPVVAPSVGTNYVASTKGEAPMRALGGSTPFGQTASRIFRVEIAAISKPGFPSVRRSNRSLLVPYEQLNNTLQQVNRSGGRVVSVAPASL | failed
MVIGTSAKHGWEVGLSRFTIKILWLNENVAIAVDQVVGKATSPLTAYYFWPRHDAWEQLKTELESKSWITEAERVELLNQATEVINYWQEEGKGKPLAQAQARFPELVFTGSNLEHHHHHH | not failed
SAKFKIRPATASDCSDILRLIKELAKYEYMEDQVVLTEKDLLEDGFGEHPFYHCLVAEVPKEHWTPEGHSIVGFAMYYFTYDPWIGKLLYLEDFFVMSDYRGFGIGSEILKNLSQVAMKCRCSSMHFLVAEWNEPSINFYKRRGASDLSSEEGWRLFKIDKEYLLKMAAEE | failed
LIDSREQYRLAVNGSNDGIWDWDMRSDTLYLSPKWKKTLGYEDDDLSNIYKTFEDLVHPEDKPVFRTYLDRYLNGEIPLFNIEFRIRHKDGAYVWILGRGEVLRDKSGSPYRMAGSMSDITGRKKDEDELKRRSAFQLVVMDLAIGFVNTPLDELDRSIERALALVGEFLQVDRSYLFRYDFANGTMSNTHEWCSEGIAPEKNNLQNLLNSIIPDWVATHLAGRIVHISSVDALDDESALKMILASQGIKTLISLPLIYHEHCFGFVGFDAVREVKKWGDDEISLLRVLAELFTNAELRFRHETALVDARYAAESANRAKSEFLANMSHEIRTPMNGVIGMA | failed
MNGEYRGRGFGRGRFQSWKRGRGGGNFSGKWREREHRPDLSKTTGKRTSEQTPQFLLSTKTPQSMQSTLDRFIPYKGWKLYFSEVYSDSSPLIEKIQAFEKFFTRHIDLYDKDEIERKGSILVDFKELTEGGEVTNLIPDIATELRDAPEKTLACMGLAIHQVLTKDLERHAAELQAQEGLSNDGETMVNVPHIHARVYNYEPLTQLKNVRANYYGKYIALRGTVVRVSNIKPLCTKMAFLCAACGEIQSFPLPDGKYSLPTKCPVPVCRGRSFTALRSSPLTVTMDWQSIKIQELMSDDQREAGRIPRTIECELVHDLVDSCVPGDTVTITGIVKVSNAEEGSRNKNDKCMFLLYIEANSISNSKGQKTKSSEDGCKHGMLMEFSLKDLYAIQEIQAEENLFKLIVKWSLALSPRLEYSGAISAHCNLHLPSSNSSPTSACRVAGTTGMRHQTQLLLLVKAGLALALFGGSQKYADDKNRIPIRGDPHILVVGDPGLGKSQMLQAACNVAPRGVYVCGNTTTTSGLTVTLSKDSSSGDFALEAGALVLGDQGICGIDEFDKMGNQHQALLEAMEQQSISLAKAGVVCSLPARTSIIAAANPVGGHYNKAKTVSENLKMGSALLSRFDLAFILLDTPNEHHDHLLSEHVIAIRAGKQRTISSATVARMNSQDSNTSVLEVVSEKPLSERLKVVPGETIDPIPHQLLRKYIGYARQYVYPRLSTEAARVLQDFYLELRKQSQRLNSSPITTRQLESLIRLTEARARLELREEATKEDAEDIVEIMKYSMLGTYSDEFGNLDFERSQHGSGMSNRSTAKRFISALNNVAERTYNNIFQFHQLRQIAKELNIQVADFENFIGSLNDQGYLLKKGPKVYQLQTM | failed
MTEKITLADALSNVEVLDELSLPDEQPCIEAQPCSIIYKANFDTNFEDRNGFVTGIAKYIEEATTHANLNVLLDEGQKHAVMLYTWRCCSRAIPQPKSNEQPNRVEIYEKTVEVLAPEVNKLLNFMYFQRKAIEAFSGEVKRLCHAEKRKDFVSEAYLLTLGKFINMFAVLDELKNMKSSVKNDYSTYRRAAQFLKVMSDSHTLQESQNLSMFLATQNKIRDTVKDTLEKIVGYEDLLSDVVNICVHMFETKMYLTPEEKHMLVKVMGFGLFLMDSDACNINKLDQKKKIRLDRIDRIFKNLEVVPLFGDMQIAPFNYIKRSKHFDSSKWPLSSSNAISPQADLMVHLPQIREDHVKYISELARYTNEVTTTVKENPSDAENRITADLALRGLQLLSEWTSVVTELYSWKLLHPTDHHQNKECPVEAEEYERATRYNYTSEEKFALIEVIAMIKGLQVLMARIETVLCEAIRRNIYSELQDFVQLSLREPLRKAVKNKKDLIRSIIMSVRETSADWQKGYEPTDDPVAKGKKDPDGGFRIQVPRLNVGPSSTQLYMVRTMLESLIADKSGGKRTLRKDIDGNCLLQIDTFHKTSFYWSYLLNFSDTLQKCCDLSQLWYREFYLEMTMGRKVNKCLVRHQHNEECKDLITMEKRIQFPIEMSMPWILTDHILQTKEPSMMEFVLYPLDLYNDSAYYALTVFRKQFLYDEVEAEVNLCFDQFVYKLSEQIFAHYKQLAGSIFLDKRFRLECEVLGFNFQSYPRNNRYETLLKQRHVQLLGRSIDLNKLITQRINANMHKSIELAISRFEGNDITGIVELEGLLEANRICHKLLSKYLALDNFDGMVKEANHNVLAPYGRITLHVFVELNYDFLVNYCYNAATNRFIRTKVNLSSSQAIQREKPPQMSHYYLWGSKQLNAAYSTQYGQYTGFVGSPHFHAMCRLLGYQGIAVVMDIILKDIVKPLIQGSLLQFTKTLMIAMPKSCKLPRCEYGSPGVLSYYQAHLTDIVQYPDAKTELFQSFREFGNSIIFCLLIEQALSQEEVCDLLHAALFQNIFPRPFCKENEKPEAKQKRLEAQFANLQIVSNVEKIGTAKQAMIAREGDLLTRERLCCGLSIFEVILNRVKSYLDDPVWCGPPPANGIIHVDECSEFHRLWSALQFVYCIPVRGTEYTIEELFGEGLNWAGCVMIVLLGQQRRFEALDFCYHILRVQRVDGKDEDVKGIQLKRMVDRIRRFQVLNSQIFSILNKYLKGGDGEGSNVEHVRCFPPPQHPSVISSSSHYQDPQKLRQSINN | failed
MEEKDWEASSSSENEGGFPNDDDEEFHSGGSVPKLQFRVGSSKARWITELGMAEVEVKRGKLWTTTGIIRSGKTYCFIEEALYLSEIGELQILGNEDDIVIPLKDLYEKIAEEKSVALGKTTRHGVSWTLKDAARPNGEEESACAGECPADNDTVTKLLGDMQICDAKAVFDVYLPNSRFKKSSPGEPSFVACFSGDSPPSKEDIKVLQKRIAAPLTFCHIAQGRASFFSFSSIDLPVLS | failed
LIACVANDDVFSESETRAKFESLFRTYDKDTTFQYFKSFKRVRINFSNPLSAADARLRLHKTEFLGKEMKLYFAQTLHIGSSHLAPPNPDK | not failed
EGGERRRRRREQAAGGAGGEGRSGSAGGSGGGRWRYGVESQPRQATLRWSEAVETRSTQGSTGNPGFEEGVAGPGGGEGAMLEAMAEPRPEDPPPTLKPETQPPEKRRRTIEDFNKFCSFVLAYAGYIPPSKEESDWPASGSSSPLRGESAADSDGWDSAPSDLRTIQTFVKKAKSSKRRAVQSGPTQPGPPRSTFSRLQAPDSATLLEKMKLKDSLFDLDGPKVASPLSPTSLTHTSRPPAALAPVPLSQGDLSQPRKKDRKNRKLGPGGGAGFGVLRRPRPAPGDGEKRSRIKKSKKRKLKKADRGDRLPPPGPPRAPPSDTDSEEEEEEEEEEDDEEEMTVGGGVPAPVLPTPPEAPRPPVTVHSEGAPPTDSEGKDVGSTETSQDGDASSSEGEMRVMDEDIMVESGDDSWDLITCYCRKPFAGRPMIECSLCGTWIHLSCAKIKKTNVPDFFYCQKCKELRPEARRLGGLPKSGEP | not failed
MQNNPSPQLPCKGILKTSRSFDKSGASFRKSAKFDELNVMQTFHPADKDYGHMKIDEPKTPYNYTEGFDENRDELDTELLVEKLRIAANTQPSTESIEDDGSSGDDQPLSEEERQRRREFERRRKAHYREFEAVKLARKLIQEEDDDDDDEDKGADSRPSGSSQGASSSGRFASSSTKRSSSQADSTTSPSTSAGQNMDLEPSNN | failed
ERLTLDTRLRQALERNELVLHYQPIVELASGRIVGGEALVRWEDPERGLVMPSAFIPAAEDTGLIVALSDWVLEACCTQLRAWQQQGRAADDLTLSVNISTRQFEGEHLTRAVDRALARSGLRPDCLELEITENVMLVMTDEVRTCLDALRARGVRLALDDFGTGYSSLSYLSQLPFHGLKIDQSFVRKIPAHPSETQIVTTILALARGLGMEVVAEGIETAQQYAFLRDRGCEFGQGNLMSTPQAADAFASLLDRQKASGQRPVHGHETAP | not failed
MAFISSGYNPEKPMANRITDIGPRKFDEFFPPVIAKNFGSWLYHEILEPGVLMHVAESGDKVYTVRVGAARLMSITHIREMCDIADKYCGGHLRFTTRNNVEFMVADEASLKALKEDLASRKFDGGSLKFPIGGTGAGVSNIVHTQGWVHCHTPATDASGPVKAIMDEVFEDFQSMRLPAPVRISLACCINMCGAVHCSDIGVVGIHRKPPMIDHEWTDQLCEIPLAVASCPTAAVRPTKLEIGDKKVNTIAIKNERCMYCGNCYTMCPALPISDGEGDGVVIMVGGKVSNRISMPKFSKVVVAYIPNEPPRWPSLTKTIKHIIEVYSANAYKYERLGEWAERIGWERFFSLTGLEFSHHLIDDFRDPAYYTWRQSTQFKFLEHHHHHH | failed
MTSASVKTVCPYCGVGCGMVLHVEGGEVVKVSGDAEHPANFGRLCTKGSSAHVALRNAGRLERAFVRDARERDPAPVPIADAIAETARRLRATLDAHGPDALAFYVSGQMSLEAQYLVNKLAKGYVRTPHIESNSRLCMASAGSGYKLSLGADGPPGSYQDFDCADLFFVIGSNMADCHPILFLRMMDRVKAGAKLVVVDPRRTATADKADLFLKIRPGTDLALLNGLLHLLHANGQTDADFIAAHTEGWAAMPDFLGDYTPEKVAAITGLTEADIRLAAQWIGDAREWTSCWTMGLNQSTHGTWNTNAICNLHLATGKICRPGSGPFSLTGQPNAMGGREMGYMGPGLPGQRSALDGDDRRFAEDVWGLPAGTIRADAGGGTVDLFARMAAGGVKACWIICTNPAATVANRKNVIAGLQAADVVIVQDAFLDTETNRYADILLPGALWAEAEGVMINSERNLTLMRRAVEPPGDAWPDWRIVAAVAREMGYGDAFDYGSAAEVFDEIRRFANPKTGYDLRGASHAALRDAPLQWPCPPHDGRDRHPIRYLNDGVSQARATLADGRVPPLAFPTPTGKARFFARPHVAPAEMPTPEFPIVLNTGRLQHQWHTMTKTGKVAMLNKLNPRPFVEIHPDDAAALSIAAKDAVEIRSARGRAVLPAVVTDRVRPGACFAPMHWNDVYGDDLCVNAVTNDAVDPVSLQPELKFCAVALARVDAMGNADVDADDETDDRVRASRAALHETGSHEADAHEADAHAAPDAHGASRAEADASEEHHMSDIDTFAALLGIPAAASAPQLTDAQRVYAAGFVSGLRSAEGRRAAGVPMLPASAPFDANTRLWVDGLLAGLFSRAPGGAAARVDARAAAQPAAIAAADASSAPSGVRIVRTRPKVVLLWASQTGNVESLTERYATQLMDSGFEIRVACMADYPAASLAKAQYALLMTSTFGDGDAPDNGQEFWAALNAADAARADGLRYAVLAFGDRNYDQFCGHGRRLDARLAALGATRLAERVDCDAEFQPAADAWLDRAIARIKEEDAALHAVPADGMIPSGAIPTKTRPAASRLVANLRLNAPGAAKDTRYVSLSTDGAAIEYEAGDALGVWPTNCPELVDELLTLTRLTPDAPVTVAGVGELRLADALAKHFDITRPHPDALAFVAARSRSGDALARLLGDDRKTDLKHWLWGQQLADVLHEFPLELSAVELVGMLKRLQPRLYSIASSPNAHRGEIHLTVSAVRYGNGRRQRKGVASTFLADRAADAPVPVFVQKSAHFRPPASGDAPIVMVGPGTGVAPFRGFLHERRARGAKGRNWLFFGEQHADTDFYYRDELAQMRADGFLTRLDVAFSRDQAEKVYVQDRMLEQGAALWAWLEEGAHFYVCGDASRMAKDVDAALKTIVARHGGMTDEQAADYVARLAKDKRYARDVY | failed
